Source: US20250368753A1

The chains behind the UniProt entries cited, without tags or fusion partners. Where a name states a change or a piece, a line headed by the entry shows the natural chain unless it says otherwise.
UniProt Q8NBP7: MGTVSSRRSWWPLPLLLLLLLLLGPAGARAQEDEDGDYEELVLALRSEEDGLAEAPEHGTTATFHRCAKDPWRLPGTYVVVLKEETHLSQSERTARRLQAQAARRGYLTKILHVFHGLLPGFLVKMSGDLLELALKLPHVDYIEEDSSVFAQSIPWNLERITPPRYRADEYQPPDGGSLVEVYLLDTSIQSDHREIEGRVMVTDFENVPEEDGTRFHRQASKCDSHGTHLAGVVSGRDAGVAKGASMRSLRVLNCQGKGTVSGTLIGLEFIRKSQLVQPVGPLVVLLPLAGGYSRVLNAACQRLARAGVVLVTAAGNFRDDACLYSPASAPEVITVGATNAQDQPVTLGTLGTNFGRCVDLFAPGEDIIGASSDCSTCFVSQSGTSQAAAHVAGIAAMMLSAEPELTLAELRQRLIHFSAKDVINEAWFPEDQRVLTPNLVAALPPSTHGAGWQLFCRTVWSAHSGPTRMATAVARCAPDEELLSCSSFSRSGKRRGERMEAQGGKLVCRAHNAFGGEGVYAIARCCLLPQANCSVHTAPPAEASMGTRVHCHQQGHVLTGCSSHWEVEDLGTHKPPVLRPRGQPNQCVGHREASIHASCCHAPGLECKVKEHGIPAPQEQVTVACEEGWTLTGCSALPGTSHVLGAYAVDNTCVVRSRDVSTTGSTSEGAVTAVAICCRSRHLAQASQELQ

Molecular target: proprotein convertase subtilisin/kexin type 9 (PCSK9) (human) (UniProt Q8NBP7)
Assay: DELFIA immunoassay (PerkinElmer Cat. #1244-330)

binding: binds
B1: Reference Antibody (antibody, V domains shown)
VH: QVQLVQSGAEVKKPGASVKVSCKASGYTFTSYYMHWVRQAPGQGLEWMGEISPFGGRTNYNEKFKSRVTMTRDTSTSTVYMELSSLRSEDTAVYYCARERPLYASDLWGQGTTVTVSS
VL: DIQMTQSPSSLSASVGDRVTITCRASQGISSALAWYQQKPGKAPKLLIYSASYRYTGVPSRFSGSGSGTDFTFTISSLQPEDIATYYCQQRYSLWRTFGQGTKLEIK

These are yes or no findings as the source states them, for the method shown. Binding can be weak; no strength is given.
